Publication doi:10.1101/2021.04.01.437949 (bioRxiv, 2021)
The exact form of at least one protein or probe is not confirmed.

The chains behind the UniProt entries cited, without tags or fusion partners.
UniProt P22147, whole entry, stated change not applied: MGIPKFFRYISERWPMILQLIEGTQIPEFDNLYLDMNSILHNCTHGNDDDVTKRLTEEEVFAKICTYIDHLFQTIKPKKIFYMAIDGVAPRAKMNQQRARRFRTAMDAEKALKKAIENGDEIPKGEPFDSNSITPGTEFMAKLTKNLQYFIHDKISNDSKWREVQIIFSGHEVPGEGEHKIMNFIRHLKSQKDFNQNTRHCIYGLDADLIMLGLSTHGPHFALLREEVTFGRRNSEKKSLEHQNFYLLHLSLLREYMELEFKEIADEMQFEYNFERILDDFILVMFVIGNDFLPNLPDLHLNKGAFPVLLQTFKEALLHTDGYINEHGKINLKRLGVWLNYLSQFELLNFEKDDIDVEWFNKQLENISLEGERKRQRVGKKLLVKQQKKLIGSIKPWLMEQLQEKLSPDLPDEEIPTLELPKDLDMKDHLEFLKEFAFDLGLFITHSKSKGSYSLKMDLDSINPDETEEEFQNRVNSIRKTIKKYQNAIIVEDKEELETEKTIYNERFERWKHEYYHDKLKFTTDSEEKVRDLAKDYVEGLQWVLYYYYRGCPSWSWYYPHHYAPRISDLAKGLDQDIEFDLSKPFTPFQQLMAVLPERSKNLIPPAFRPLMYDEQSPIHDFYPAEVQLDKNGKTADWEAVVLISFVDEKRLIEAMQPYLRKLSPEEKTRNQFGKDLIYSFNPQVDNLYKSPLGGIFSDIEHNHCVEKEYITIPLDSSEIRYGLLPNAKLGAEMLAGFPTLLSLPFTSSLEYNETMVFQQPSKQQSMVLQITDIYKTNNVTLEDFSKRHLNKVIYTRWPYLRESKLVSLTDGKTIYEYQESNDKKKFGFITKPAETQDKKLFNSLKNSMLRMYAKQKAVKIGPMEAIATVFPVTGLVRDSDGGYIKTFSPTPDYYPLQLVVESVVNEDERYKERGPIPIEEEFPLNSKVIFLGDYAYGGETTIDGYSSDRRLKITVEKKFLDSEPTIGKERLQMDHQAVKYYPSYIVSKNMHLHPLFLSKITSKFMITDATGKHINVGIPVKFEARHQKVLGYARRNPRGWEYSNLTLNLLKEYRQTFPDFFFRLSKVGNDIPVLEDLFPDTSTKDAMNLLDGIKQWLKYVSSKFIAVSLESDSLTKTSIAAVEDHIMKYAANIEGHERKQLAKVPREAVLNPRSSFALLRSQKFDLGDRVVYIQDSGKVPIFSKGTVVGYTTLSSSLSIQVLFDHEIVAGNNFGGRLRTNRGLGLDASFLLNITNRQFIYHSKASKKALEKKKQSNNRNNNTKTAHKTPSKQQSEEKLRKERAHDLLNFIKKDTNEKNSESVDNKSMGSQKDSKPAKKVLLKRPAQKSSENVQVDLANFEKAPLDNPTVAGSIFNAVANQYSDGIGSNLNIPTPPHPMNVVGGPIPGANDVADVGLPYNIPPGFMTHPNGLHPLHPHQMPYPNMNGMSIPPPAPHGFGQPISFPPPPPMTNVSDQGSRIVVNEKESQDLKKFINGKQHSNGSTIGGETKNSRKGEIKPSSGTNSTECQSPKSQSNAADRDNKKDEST

Biological target: Xrn1ΔNLS2-FLAG (Saccharomyces cerevisiae) (UniProt P22147)
Assay: competition with a labelled probe
Conditions: 2 mM EDTA, RNA weakened interaction with Kap120

Does “AUGUACAGUCCGACGAACACGGAGUCGACCCGCAACGCGA [40 nt competitor RNA]” bind?
Result: binds
